Data reported in publication doi:10.1101/2025.06.19.657327.
No constants are given. Whether binding was seen depends on the method and setting. In cells and extracts the contact can be indirect. These calls come from enrichment with a bait or labelling near it, and not all partners need be listed.

Molecular target: T1, Satb1 (Special AT-rich Binding Protein 1) (mouse (endogenous in thymocytes)) (UniProt Q60611)
T1 sequence: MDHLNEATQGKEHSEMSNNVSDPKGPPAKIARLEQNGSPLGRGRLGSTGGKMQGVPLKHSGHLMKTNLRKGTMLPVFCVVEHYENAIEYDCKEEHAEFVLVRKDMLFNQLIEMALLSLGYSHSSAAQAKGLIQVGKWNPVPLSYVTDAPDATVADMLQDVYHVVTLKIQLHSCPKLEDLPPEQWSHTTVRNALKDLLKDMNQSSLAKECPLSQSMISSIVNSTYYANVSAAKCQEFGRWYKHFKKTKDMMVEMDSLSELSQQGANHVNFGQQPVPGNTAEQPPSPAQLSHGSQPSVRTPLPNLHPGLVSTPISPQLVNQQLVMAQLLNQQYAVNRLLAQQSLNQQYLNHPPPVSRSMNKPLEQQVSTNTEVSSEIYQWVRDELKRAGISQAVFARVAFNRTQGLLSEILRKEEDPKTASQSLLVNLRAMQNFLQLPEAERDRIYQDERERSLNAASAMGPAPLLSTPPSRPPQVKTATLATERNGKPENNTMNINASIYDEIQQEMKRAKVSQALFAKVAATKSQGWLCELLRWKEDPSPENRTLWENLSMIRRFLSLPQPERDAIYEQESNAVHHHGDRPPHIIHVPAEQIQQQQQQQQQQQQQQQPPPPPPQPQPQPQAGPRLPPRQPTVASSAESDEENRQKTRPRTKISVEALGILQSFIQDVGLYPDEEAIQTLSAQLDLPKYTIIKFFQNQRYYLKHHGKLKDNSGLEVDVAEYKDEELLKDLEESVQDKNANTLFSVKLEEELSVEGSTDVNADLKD
Assay: affinity purification with mass spectrometry

- binding: binds
B1: Smc1a (cohesin subunit) (protein, UniProt Q9CU62 1-1233)
chain: MGFLKLIEIENFKSYKGRQIIGPFQRFTAIIGPNGSGKSNLMDAISFVLGEKTSNLRVKTLRDLIHGAPVGKPAANRAFVSMVYSEEGAEDRTFARVIVGGSSEYKINNKVVQLHEYSEELEKLGILIKARNFLVFQGAVESIAMKNPKERTALFEEISRSGELAQEYDKRKKEMVKAEEDTQFNYHRKKNIAAERKEAKQEKEEADRYQRLKDEVVRAQVQLQLFKLYHNEVEIEKLNKELASKNKEIEKDKKRMDKVEDELKEKKKELGKMMREQQQIEKEIKEKDSELNQKRPQYIKAKENTSHKIKKLEAAKKSLQNAQKHYKKRKGDMDELEKEMLSVEKARQEFEERMEEESQSQGRDLTLEENQVKKYHRLKEEASKRAATLAQELEKFNRDQKADQDRLDLEERKKVETEAKIKQKLREIEENQKRIEKLEEYITTSKQSLEEQKKLEGELTEEVEMAKRRIDEINKELNQVMEQLGDARIDRQESSRQQRKAEIMESIKRLYPGSVYGRLIDLCQPTQKKYQIAVTKVLGKNMDAIIVDSEKTGRDCIQYIKEQRGEPETFLPLDYLEVKPTDEKLRELKGAKLVIDVIRYEPPHIKKALQYACGNALVCDNVEDARRIAFGGHQRHKTVALDGTLFQKSGVISGGASDLKAKARRWDEKAVDKLKEKKERLTEELKEQMKAKRKEAELRQVQSQAHGLQMRLKYSQSDLEQTKTRHLALNLQEKSKLESELANFGPRINDIKRIIQSREREMKDLKEKMNQVEDEVFEEFCREIGVRNIREFEEEKVKRQNEIAKKRLEFENQKTRLGIQLDFEKNQLKEDQDKVHMWEQTVKKDENEIEKLKKEEQRHMKIIDETMAQLQDLKNQHLAKKSEVNDKNHEMEEIRKKLGGANKEMTHLQKEVTAIETKLEQKRSDRHNLLQACKMQDIKLPLSKGTMDDISQEEGSSQGEESVSGSQRTSSIYAREALIEIDYGDLCEDLKDAQAEEEIKQEMNTLQQKLNEQQSVLQRIAAPNMKAMEKLESVRDKFQETSDEFEAARKRAKKAKQAFEQIKKERFDRFNACFESVATNIDEIYKALSRNSSAQAFLGPENPEEPYLDGINYNCVAPGKRFRPMDNLSGGEKTVAALALLFAIHSYKPAPFFVLDEIDAALDNTNIGKVANYIKEQSTCNFQAIVISLKEEFYTKAESLIGVYPEQGDCVISKVLTFDLTKYPDANPNPNEQ
